Three molecules from publication PMC10140023 can be followed below.

Protein sequences, listed by entry. Tags and fused reporters are not part of them.
UniProt P28340: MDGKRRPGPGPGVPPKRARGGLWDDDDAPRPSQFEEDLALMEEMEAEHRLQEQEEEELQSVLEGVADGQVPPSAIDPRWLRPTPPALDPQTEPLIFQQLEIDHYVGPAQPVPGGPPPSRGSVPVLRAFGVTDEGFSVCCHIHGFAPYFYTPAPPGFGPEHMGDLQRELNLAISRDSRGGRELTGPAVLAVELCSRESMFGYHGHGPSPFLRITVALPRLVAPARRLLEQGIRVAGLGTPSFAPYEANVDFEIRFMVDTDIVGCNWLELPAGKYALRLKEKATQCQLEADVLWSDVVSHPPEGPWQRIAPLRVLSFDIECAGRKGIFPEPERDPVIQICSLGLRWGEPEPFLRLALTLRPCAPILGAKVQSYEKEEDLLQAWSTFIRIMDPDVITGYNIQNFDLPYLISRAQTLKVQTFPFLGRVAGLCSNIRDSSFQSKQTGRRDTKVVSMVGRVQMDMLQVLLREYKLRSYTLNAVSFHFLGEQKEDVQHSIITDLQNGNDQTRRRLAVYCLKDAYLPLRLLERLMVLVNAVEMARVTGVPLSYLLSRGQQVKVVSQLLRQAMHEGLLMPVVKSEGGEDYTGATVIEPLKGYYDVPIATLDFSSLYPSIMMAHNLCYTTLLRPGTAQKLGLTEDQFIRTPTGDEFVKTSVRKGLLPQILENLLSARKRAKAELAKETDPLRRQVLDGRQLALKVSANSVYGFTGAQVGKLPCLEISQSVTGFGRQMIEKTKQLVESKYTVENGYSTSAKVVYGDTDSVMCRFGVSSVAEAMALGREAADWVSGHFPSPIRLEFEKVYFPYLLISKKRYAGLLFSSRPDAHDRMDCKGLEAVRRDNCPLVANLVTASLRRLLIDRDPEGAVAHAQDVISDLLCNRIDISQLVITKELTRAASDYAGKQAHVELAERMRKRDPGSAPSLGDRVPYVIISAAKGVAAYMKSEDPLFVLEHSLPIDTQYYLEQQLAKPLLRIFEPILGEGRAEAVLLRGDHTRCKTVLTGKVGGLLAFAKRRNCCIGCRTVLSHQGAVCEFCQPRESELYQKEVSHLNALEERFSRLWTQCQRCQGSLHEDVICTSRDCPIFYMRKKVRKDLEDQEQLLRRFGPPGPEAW
UniProt Q969H0: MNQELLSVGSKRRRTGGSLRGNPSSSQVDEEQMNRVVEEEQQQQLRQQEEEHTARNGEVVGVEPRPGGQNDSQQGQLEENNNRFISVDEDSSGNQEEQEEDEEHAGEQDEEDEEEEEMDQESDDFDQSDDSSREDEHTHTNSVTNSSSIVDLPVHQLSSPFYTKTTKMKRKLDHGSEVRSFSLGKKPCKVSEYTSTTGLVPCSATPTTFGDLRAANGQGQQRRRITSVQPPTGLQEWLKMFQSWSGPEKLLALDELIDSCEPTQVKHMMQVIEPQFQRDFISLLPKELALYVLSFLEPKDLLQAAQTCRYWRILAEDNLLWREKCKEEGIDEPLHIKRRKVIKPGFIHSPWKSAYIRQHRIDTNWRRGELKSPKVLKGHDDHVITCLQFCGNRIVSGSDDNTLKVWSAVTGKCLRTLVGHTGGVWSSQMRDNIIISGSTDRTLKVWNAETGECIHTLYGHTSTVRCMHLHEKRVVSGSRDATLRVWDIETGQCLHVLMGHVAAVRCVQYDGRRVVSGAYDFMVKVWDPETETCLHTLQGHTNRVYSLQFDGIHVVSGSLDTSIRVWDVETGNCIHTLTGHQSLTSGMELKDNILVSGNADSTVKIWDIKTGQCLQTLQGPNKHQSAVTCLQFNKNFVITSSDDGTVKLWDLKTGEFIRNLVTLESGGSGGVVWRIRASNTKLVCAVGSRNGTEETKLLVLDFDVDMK

These are yes or no findings as the source states them, for the method shown. Some results given as binding are weak or reduced against the parent protein; the word gives no strength. Tags and fused reporters may be left off the sequences shown.

One experiment concerns the target GFP-POLD1 (human) (UniProt P28340). Put plainly: MST; whole cell lysate of 293T cells overexpressing the GFP fusion; MBI peptide titrated in 16 two-fold steps from 2.5 mM; Monolith NT.115; only the binder purified.
Another experiment concerns the target GFP-FBXW7α (human) (UniProt Q969H0). Described as above.

Regarding APSEDIWKKFELLPAPPLSP [MB1-T58A peptide], the binding entry with GFP-POLD1 (human) is on record as “binds”.

Turning to APSEDIWKKFELLPTPPLSP [MYC-MB1 (WT) peptide], the binding result with GFP-FBXW7α (human) and with GFP-POLD1 (human) was “binds” each time.

Take APSEDIWKKFELLPDPPLSP [MB1-T58D peptide]: in the experiment with GFP-POLD1 (human), the binding result was “binds”.
